From the supplement of paper PMC6078165
Values are relative to the signal before dosing, not to a vehicle control; the signal also falls without drug.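 Labels refer to human fibroblasts, largely primary: uterine (C12385, HUF), lung (H6013), bone (Hs27A), adrenal (HADF), skin (WS1), plus mammary HMF and breast cancer-associated Hs343T. Cancer lines are basal-like or mesenchymal-like triple-negative breast cancer. The paper counts as hits responses shifting over 3x the replicate standard deviation. The tissue of the other fibroblasts is not given here.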

Test system: MDAMB231
Test: relative JC-1 red fluorescence (viability) vs pre-drug, coculture with fibroblast (fraction); higher = more viable cancer cells
Description: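 JC-1 labelled TNBC cells cocultured 1:1 (1,500 cells each) with CellTrace Violet stained primary or stromal fibroblasts in 384-well plates in FluoroBrite medium, treated with one of 42 anticancer drugs at 0.1, 1, 10 or 100 uM. JC-1 red fluorescence (mitochondrial integrity in cancer cells only) was read by plate reader every 8 h for 72 h. Values are normalised to each well's pre-drug value. The stock of one drug was tenfold lower, so its dose labels may be too high.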

O=NN(CCCl)C(=O)NCCCl [Carmustine]
relative JC-1 red fluorescence
Conditions	8 h	16 h	24 h	32 h	40 h	48 h	56 h	64 h	72 h
0.1 µM, coculture fibroblast: C12385	0.7682	0.7294	0.64	0.618	0.563	0.5299	0.485	0.475	0.447
0.1 µM, coculture fibroblast: H6013	0.882	0.822	0.777	0.754	0.712	0.698	0.681	0.655	0.625
0.1 µM, coculture fibroblast: H6019	0.7485	0.657	0.614	0.573	0.509	0.489	0.438	0.416	0.378
0.1 µM, coculture fibroblast: H6076	0.882	0.803	0.728	0.702	0.642	0.603	0.573	0.554	0.542
0.1 µM, coculture fibroblast: H6231	0.9	0.797	0.724	0.677	0.613	0.582	0.528	0.506	0.48
0.1 µM, coculture fibroblast: HADF	0.909	0.886	0.837	0.799	0.772	0.731	0.722	0.697	0.657
0.1 µM, coculture fibroblast: HCFa	0.892	0.8473	0.7797	0.731	0.679	0.625	0.5974	0.5613	0.514
0.1 µM, coculture fibroblast: HCPF	0.8832	0.7931	0.703	0.689	0.636	0.596	0.556	0.528	0.502
0.1 µM, coculture fibroblast: HHSteC	0.8978	0.8673	0.817	0.767	0.716	0.687	0.643	0.624	0.579
0.1 µM, coculture fibroblast: HMF	0.8609	0.7652	0.702	0.67	0.614	0.5716	0.533	0.5137	0.498
0.1 µM, coculture fibroblast: HPFa	0.9325	0.893	0.819	0.766	0.728	0.679	0.608	0.569	0.518
0.1 µM, coculture fibroblast: HUF	0.831	0.736	0.7314	0.606	0.542	0.519	0.472	0.458	0.434
0.1 µM, coculture fibroblast: Hs5	0.932	0.888	0.835	0.81	0.767	0.72	0.684	0.659	0.64
0.1 µM, coculture fibroblast: Hs27A	0.881	0.8301	0.7686	0.724	0.67	0.596	0.593	0.565	0.513
0.1 µM, coculture fibroblast: Hs343T	0.883	0.77795	0.671	0.627	0.561	0.514	0.448	0.422	0.388
0.1 µM, coculture fibroblast: WS1	0.753	0.698	0.574	0.56	0.5033	0.4681	0.413	0.387	0.355
1 µM, coculture fibroblast: C12385	0.773	0.753	0.733	0.692	0.615	0.593	0.559	0.563	0.547
1 µM, coculture fibroblast: H6013	0.9	0.82	0.78	0.75	0.701	0.682	0.656	0.637	0.587
1 µM, coculture fibroblast: H6019	0.733	0.66	0.643	0.59	0.555	0.54	0.486	0.464	0.414
1 µM, coculture fibroblast: H6076	0.836	0.791	0.757	0.731	0.6991	0.669	0.654	0.638	0.632
1 µM, coculture fibroblast: H6231	0.8849	0.7652	0.717	0.667	0.609	0.578	0.534	0.517	0.488
1 µM, coculture fibroblast: HADF	0.8955	0.81809	0.77696	0.735	0.698	0.6609	0.636	0.618	0.563
1 µM, coculture fibroblast: HCFa	0.893	0.834	0.793	0.732	0.68414	0.6329	0.598	0.563	0.515
1 µM, coculture fibroblast: HCPF	0.842	0.737	0.701	0.679	0.632	0.592	0.564	0.538	0.515
1 µM, coculture fibroblast: HHSteC	0.891	0.858	0.818	0.774	0.728	0.706	0.661	0.632	0.59
1 µM, coculture fibroblast: HMF	0.824	0.739	0.679	0.631	0.579	0.536	0.503	0.487	0.469
1 µM, coculture fibroblast: HPFa	0.948	0.889	0.837	0.777	0.755	0.7117	0.642	0.609	0.537
1 µM, coculture fibroblast: HUF	0.822	0.709	0.736	0.616	0.557	0.537	0.483	0.48	0.467
1 µM, coculture fibroblast: Hs5	0.885	0.8014	0.738	0.684	0.634	0.576	0.543	0.517	0.484
1 µM, coculture fibroblast: Hs27A	0.878	0.8104	0.767	0.731	0.679	0.61	0.613	0.588	0.529
1 µM, coculture fibroblast: Hs343T	0.824	0.697	0.651	0.626	0.5778	0.536	0.5	0.484	0.462
1 µM, coculture fibroblast: WS1	0.708	0.648	0.608	0.547	0.503	0.474	0.442	0.438	0.415
10 µM, coculture fibroblast: C12385	0.761	0.734	0.605	0.59	0.515	0.472	0.424	0.416	0.391
10 µM, coculture fibroblast: H6013	0.893	0.835	0.7831	0.764	0.7251	0.7075	0.6885	0.6687	0.6368
10 µM, coculture fibroblast: H6019	0.8302	0.768	0.671	0.658	0.592	0.559	0.496	0.459	0.404
10 µM, coculture fibroblast: H6076	0.876	0.784	0.707	0.689	0.648	0.61	0.5798	0.564	0.553
10 µM, coculture fibroblast: H6231	0.938	0.853	0.7785	0.732	0.669	0.637	0.59	0.564	0.531
10 µM, coculture fibroblast: HADF	0.914	0.875	0.841	0.825	0.786	0.746	0.737	0.714	0.667
10 µM, coculture fibroblast: HCFa	0.9074	0.8434	0.8062	0.756	0.695	0.6529	0.609	0.5679	0.5301
10 µM, coculture fibroblast: HCPF	0.9318	0.846	0.7511	0.738	0.673	0.635	0.591	0.558	0.536
10 µM, coculture fibroblast: HHSteC	0.9121	0.8595	0.8095	0.7667	0.7123	0.693	0.638	0.613	0.575
10 µM, coculture fibroblast: HMF	0.8892	0.8017	0.7178	0.676	0.622	0.58	0.533	0.507	0.483
10 µM, coculture fibroblast: HPFa	0.928	0.878	0.798	0.727	0.669	0.616	0.554	0.511	0.45
10 µM, coculture fibroblast: HUF	0.863	0.75	0.712	0.594	0.51	0.48	0.419	0.408	0.387
10 µM, coculture fibroblast: Hs5	0.891	0.806	0.718	0.665	0.608	0.55	0.498	0.467	0.432
10 µM, coculture fibroblast: Hs27A	0.91	0.877	0.848	0.837	0.804	0.739	0.766	0.741	0.7
10 µM, coculture fibroblast: Hs343T	0.892	0.779	0.685	0.654	0.592	0.533	0.467	0.439	0.412
10 µM, coculture fibroblast: WS1	0.7638	0.6926	0.635	0.577	0.523	0.492	0.445	0.425	0.397
100 µM, coculture fibroblast: C12385	0.7235	0.6778	0.692	0.623	0.551	0.538	0.52	0.534	0.538
100 µM, coculture fibroblast: H6013	0.9036	0.87	0.831	0.827	0.8	0.7795	0.7638	0.738	0.697
100 µM, coculture fibroblast: H6019	0.777	0.729	0.785	0.723	0.695	0.691	0.649	0.634	0.596
100 µM, coculture fibroblast: H6076	0.832	0.759	0.726	0.695	0.661	0.6307	0.619	0.621	0.621
100 µM, coculture fibroblast: H6231	0.846	0.7888	0.7346	0.7147	0.673	0.651	0.622	0.609	0.586
100 µM, coculture fibroblast: HADF	0.879	0.847	0.8305	0.8	0.7716	0.748	0.716	0.706	0.656
100 µM, coculture fibroblast: HCFa	0.90771	0.8588	0.822	0.789	0.754	0.71	0.672	0.639	0.5908
100 µM, coculture fibroblast: HCPF	0.831	0.744	0.703	0.683	0.632	0.595	0.568	0.542	0.523
100 µM, coculture fibroblast: HHSteC	0.914	0.8812	0.855	0.79814	0.7545	0.729	0.6811	0.6595	0.631
100 µM, coculture fibroblast: HMF	0.845	0.768	0.727	0.701	0.658	0.621	0.597	0.586	0.558
100 µM, coculture fibroblast: HPFa	0.9053	0.894	0.8522	0.8085	0.7813	0.7516	0.6925	0.6573	0.598
100 µM, coculture fibroblast: HUF	0.8243	0.728	0.756	0.644	0.589	0.584	0.555	0.567	0.568
100 µM, coculture fibroblast: Hs5	0.868	0.81	0.773	0.732	0.699	0.649	0.62	0.598	0.575
100 µM, coculture fibroblast: Hs27A	0.86993	0.853	0.816	0.804	0.768	0.742	0.722	0.71	0.655
100 µM, coculture fibroblast: Hs343T	0.858	0.75	0.695	0.659	0.606	0.555	0.512	0.482	0.452
100 µM, coculture fibroblast: WS1	0.725	0.638	0.645	0.551	0.505	0.492	0.46	0.466	0.461
